{"source": "PubChem BioAssay AID1259254 (NCATS, 2017)", "screen": "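Finding genes that stop cells copying their DNA twice in one cycle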 (primary screen)", "cells": "human HCT116 colorectal cancer cells", "knock-down reagent": "single siRNA against human genes", "timing": "3 days", "measured": "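Nuclei stained with Hoechst and imaged; cell-cycle phase assigned by DNA content; G2 share scaled per plate, non-targeting siRNA 0%, GMNN siRNA 100%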", "scale": "G2 robust z-score and G2 cells, % of GMNN control: higher = more G2 cells, more excess DNA replication", "hit rule": "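Active siRNAs have a G2 robust z of 5 or more median absolute deviations over the median, which in these data means about 38% or higher of GMNN control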", "note": "The deposit covers about 59,000 reagents; shown is a part drawn at random. About 1,550 of all reagents (2.6%) count as active. 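G2 share is only a proxy for re-replication; each gene was hit by three separate siRNAs, and active genes were retested.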 Entries without a mark were called inactive. The numbers tell different reagents against one gene apart. Further read-outs or replicates are left out here. Not given: the amount of reagent."}
{"gene":"TRIM16L (tripartite motif containing 16 like (pseudogene))","reagent":1,"G2 robust z-score":1.27,"G2 cells, % of GMNN control":11.9}
{"gene":"TRIM16L (tripartite motif containing 16 like (pseudogene))","reagent":2,"G2 robust z-score":-0.343,"G2 cells, % of GMNN control":0.551}
{"gene":"TRIM16L (tripartite motif containing 16 like (pseudogene))","reagent":3,"G2 robust z-score":-0.325,"G2 cells, % of GMNN control":0.681}
{"gene":"ERBB2 (erb-b2 receptor tyrosine kinase 2)","reagent":1,"G2 robust z-score":0.588,"G2 cells, % of GMNN control":7.1}
{"gene":"ERBB2 (erb-b2 receptor tyrosine kinase 2)","reagent":2,"G2 robust z-score":-0.178,"G2 cells, % of GMNN control":1.72}
{"gene":"ERBB2 (erb-b2 receptor tyrosine kinase 2)","reagent":3,"G2 robust z-score":-0.0219,"G2 cells, % of GMNN control":2.81}
{"gene":"TEF (TEF transcription factor, PAR bZIP family member)","reagent":1,"G2 robust z-score":-0.126,"G2 cells, % of GMNN control":2.08}
{"gene":"TEF (TEF transcription factor, PAR bZIP family member)","reagent":2,"G2 robust z-score":4.63,"G2 cells, % of GMNN control":35.5}
{"gene":"TEF (TEF transcription factor, PAR bZIP family member)","reagent":3,"G2 robust z-score":0.074,"G2 cells, % of GMNN control":3.49}
{"gene":"CD40 (CD40 molecule)","reagent":1,"G2 robust z-score":-1.13,"G2 cells, % of GMNN control":-4.95}
{"gene":"CD40 (CD40 molecule)","reagent":2,"G2 robust z-score":2.31,"G2 cells, % of GMNN control":19.2}
{"gene":"CD40 (CD40 molecule)","reagent":3,"G2 robust z-score":-0.487,"G2 cells, % of GMNN control":-0.458}
{"gene":"GDPD2 (glycerophosphodiester phosphodiesterase domain containing 2)","reagent":1,"G2 robust z-score":-1.1,"G2 cells, % of GMNN control":-4.77}
{"gene":"GDPD2 (glycerophosphodiester phosphodiesterase domain containing 2)","reagent":2,"G2 robust z-score":2.71,"G2 cells, % of GMNN control":22}
{"gene":"GDPD2 (glycerophosphodiester phosphodiesterase domain containing 2)","reagent":3,"G2 robust z-score":-0.529,"G2 cells, % of GMNN control":-0.758}
{"gene":"PARG (poly(ADP-ribose) glycohydrolase)","reagent":1,"G2 robust z-score":3.36,"G2 cells, % of GMNN control":26.6}
{"gene":"PARG (poly(ADP-ribose) glycohydrolase)","reagent":2,"G2 robust z-score":0.227,"G2 cells, % of GMNN control":4.56}
{"gene":"PARG (poly(ADP-ribose) glycohydrolase)","reagent":3,"G2 robust z-score":-0.215,"G2 cells, % of GMNN control":1.46}
{"gene":"PTBP2 (polypyrimidine tract binding protein 2)","reagent":1,"G2 robust z-score":-1.3,"G2 cells, % of GMNN control":-6.18}
{"gene":"PTBP2 (polypyrimidine tract binding protein 2)","reagent":2,"G2 robust z-score":-0.577,"G2 cells, % of GMNN control":-1.09}
{"gene":"PTBP2 (polypyrimidine tract binding protein 2)","reagent":3,"G2 robust z-score":-0.94,"G2 cells, % of GMNN control":-3.65}
{"gene":"ANGPTL2 (angiopoietin like 2)","reagent":1,"G2 robust z-score":-1.51,"G2 cells, % of GMNN control":-7.66}
{"gene":"ANGPTL2 (angiopoietin like 2)","reagent":2,"G2 robust z-score":-0.966,"G2 cells, % of GMNN control":-3.83}
{"gene":"ANGPTL2 (angiopoietin like 2)","reagent":3,"G2 robust z-score":-0.521,"G2 cells, % of GMNN control":-0.7}

An excerpt from above, showing only “G2 cells, % of GMNN control”.
ERBB2 (erb-b2 receptor tyrosine kinase 2) #1 = 7.1
ERBB2 (erb-b2 receptor tyrosine kinase 2) #2 = 1.72
